Article PMC12667488
These are yes or no findings as the source states them, for the method shown. In cells and extracts the contact can be indirect. Some entries that bind do so weakly or less than the wild type.

The chains behind the UniProt entries cited, without tags or fusion partners.
UniProt O14503: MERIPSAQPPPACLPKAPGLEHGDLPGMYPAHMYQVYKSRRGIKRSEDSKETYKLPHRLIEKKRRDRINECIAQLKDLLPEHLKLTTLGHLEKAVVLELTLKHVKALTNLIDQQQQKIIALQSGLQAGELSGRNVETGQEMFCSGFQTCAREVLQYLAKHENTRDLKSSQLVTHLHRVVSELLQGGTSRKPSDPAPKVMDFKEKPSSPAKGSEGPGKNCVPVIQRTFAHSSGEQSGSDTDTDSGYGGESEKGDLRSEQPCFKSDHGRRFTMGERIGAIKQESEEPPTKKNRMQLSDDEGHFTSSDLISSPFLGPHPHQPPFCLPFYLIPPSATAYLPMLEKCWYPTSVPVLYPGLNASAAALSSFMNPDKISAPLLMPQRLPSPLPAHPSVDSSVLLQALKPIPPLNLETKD
UniProt P23769: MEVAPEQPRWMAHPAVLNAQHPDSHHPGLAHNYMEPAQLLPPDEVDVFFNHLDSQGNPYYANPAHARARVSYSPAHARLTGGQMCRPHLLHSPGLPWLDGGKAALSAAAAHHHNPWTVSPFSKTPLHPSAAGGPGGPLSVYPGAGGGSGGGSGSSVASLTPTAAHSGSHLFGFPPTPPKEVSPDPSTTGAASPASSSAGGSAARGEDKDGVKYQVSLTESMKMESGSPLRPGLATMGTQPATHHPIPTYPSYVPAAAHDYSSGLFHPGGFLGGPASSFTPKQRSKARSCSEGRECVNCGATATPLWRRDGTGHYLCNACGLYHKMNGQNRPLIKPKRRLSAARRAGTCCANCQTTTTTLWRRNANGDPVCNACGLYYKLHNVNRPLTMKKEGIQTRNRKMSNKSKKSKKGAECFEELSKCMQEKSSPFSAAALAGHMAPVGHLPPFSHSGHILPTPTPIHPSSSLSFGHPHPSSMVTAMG
UniProt P23771: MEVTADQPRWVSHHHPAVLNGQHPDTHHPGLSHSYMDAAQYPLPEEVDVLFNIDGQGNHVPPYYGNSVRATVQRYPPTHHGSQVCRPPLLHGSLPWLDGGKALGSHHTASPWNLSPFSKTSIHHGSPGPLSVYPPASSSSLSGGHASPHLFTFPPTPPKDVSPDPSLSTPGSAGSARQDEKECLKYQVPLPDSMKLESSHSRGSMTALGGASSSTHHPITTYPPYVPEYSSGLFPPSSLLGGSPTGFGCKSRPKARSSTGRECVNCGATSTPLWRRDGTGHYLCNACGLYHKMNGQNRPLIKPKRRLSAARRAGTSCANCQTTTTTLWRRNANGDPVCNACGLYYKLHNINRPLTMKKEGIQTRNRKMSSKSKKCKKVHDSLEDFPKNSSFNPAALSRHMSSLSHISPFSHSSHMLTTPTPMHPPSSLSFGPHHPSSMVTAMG
UniProt Q92754: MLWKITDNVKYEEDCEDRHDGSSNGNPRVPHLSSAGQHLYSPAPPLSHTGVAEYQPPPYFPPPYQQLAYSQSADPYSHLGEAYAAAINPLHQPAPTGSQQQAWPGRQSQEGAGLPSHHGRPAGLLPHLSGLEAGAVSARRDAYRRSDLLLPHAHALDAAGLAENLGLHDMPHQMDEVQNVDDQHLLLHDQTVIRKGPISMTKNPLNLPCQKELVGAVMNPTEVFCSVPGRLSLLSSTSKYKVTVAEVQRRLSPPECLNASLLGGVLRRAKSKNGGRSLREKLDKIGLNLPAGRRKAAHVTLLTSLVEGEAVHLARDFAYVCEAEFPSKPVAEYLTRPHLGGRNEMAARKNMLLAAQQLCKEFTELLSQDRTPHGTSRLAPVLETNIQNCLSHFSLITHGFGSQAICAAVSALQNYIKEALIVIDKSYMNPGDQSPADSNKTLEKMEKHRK

Tests used:
HA‐tagged BHLHE40 = HA‐tagged BHLHE40 (UniProt O14503); assay: co-IP; transfected HEK293T cells expressing HA-tagged BHLHE40 and FLAG-tagged GATA2 or GATA3; anti-HA or anti-DDDDK antibody on protein A/G magnetic beads; lysis in 20 mM Tris-HCl pH 7.5, 300 mM NaCl, 0.1% Triton X-100 with Benzonase; overnight at 4 °C; western blotting
[1] = target: basic helix‐loop‐helix family member 40 (BHLHE40) (human (endogenous in STBs from human TSCs)) (UniProt O14503); assay: co-IP; endogenous proteins in STB lysate; anti-BHLHE40 antibody (Santa Cruz sc-101023) on protein A/G magnetic beads, IgG control; lysis in 20 mM Tris-HCl pH 7.5, 300 mM NaCl, 0.1% Triton X-100 with Benzonase; overnight at 4 °C; five washes with TBST; western blotting
FLAG‐tagged GATA2 = FLAG‐tagged GATA2 (UniProt P23769); assay: co-IP; transfected HEK293T cells expressing HA-tagged BHLHE40 and FLAG-tagged GATA2 or GATA3; anti-HA or anti-DDDDK antibody on protein A/G magnetic beads; lysis in 20 mM Tris-HCl pH 7.5, 300 mM NaCl, 0.1% Triton X-100 with Benzonase; overnight at 4 °C; western blotting
FLAG‐tagged GATA3 = FLAG‐tagged GATA3 (UniProt P23771); assay: as above

| Substance | binding (HA‐tagged BHLHE40) | binding [1] | other results |
| --- | --- | --- | --- |
| FLAG‐tagged GATA2 (from UniProt P23769 1-480) | binds | – | – |
| FLAG‐tagged GATA3 (from UniProt P23771 1-443) | binds | – | – |
| GATA2 (from UniProt P23769 1-480) | – | binds | – |
| GATA3 (from UniProt P23771 1-443) | – | binds | – |
| HA‐tagged BHLHE40 (from UniProt O14503 1-412) | – | – | binding (FLAG‐tagged GATA2): binds; binding (FLAG‐tagged GATA3): binds |
| TFAP2C (from UniProt Q92754 1-450) | – | binds weakly | – |
